Results published in PubChem BioAssay AID2685 (National Center for Advancing Translational Sciences (NCATS), 2010).
Out of some 320,000 compounds screened, about 2,100 (0.66%) were called active. The inconclusive results got no clear call from the source; some entries with a clear call stand among them for comparison. Calls follow the shape of the dose curve; as a rule, active = well fitted inhibition curve with a large enough effect in the signal ratio, with a control signal flat (not every such curve was filed as active); inconclusive = small, poorly fitted or top-dose-only effect, or effect the other way, or a change in a side signal; inactive = flat fitted curve, though single readings scatter; the % refers to the signal ratio. Where the call is inconclusive, the potency comes from a doubtful curve fit.

Assay: qHTS Assay for Lipid Storage Modulators in Drosophila S3 Cells
Settings: BODIPY lipid droplet fluorescence, 18-24 h, cells fed with added oleic acid; lipid storage change, negative = inhibition: at 46.1 µM (top of the series) unless noted
In short: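 Drosophila S3 cells got compounds at several concentrations plus oleic acid (400 uM solution). Laser-scanning cytometry with 488 nm excitation read lipid droplets at 500-530 nm and cells at 575-640 nm. Percent activity was relative to 20 uM Triacsin C.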
% is scaled to controls: 0 for no effect and ±100 for the full control effect; potency is read from the fitted curve at half-maximal effect.

Structure (SMILES)	lipid storage change, negative = inhibition	Potency
CCOCCCNC(=O)CN1C2CCC1CC(O)(c1ccc(OC)cc1)C2 (stereo not drawn)	inconclusive: 2.8%	–
O=C(Cc1ccccc1)OCC(=O)N1CCN(S(=O)(=O)c2ccc(Cl)cc2)CC1	inconclusive: -3.44%	–
O=c1[nH]c(=O)n(Cc2ccco2)c(O)c1C=NCc1cccs1	inconclusive: 7.84%	–
O=C1NC(=S)N(c2ccccc2)C(=O)/C1=C/c1ccco1	inconclusive: 38%	–
CC12CCC3C(CCC4C/C(=N/O)CCC43C)C1CCC2O (stereo not drawn)	inconclusive: -32.1%	–
O=C(O)CCn1cc(C=C2C(=O)NC(=S)NC2=O)c(-c2ccccc2)n1	inconclusive: -21.3%	–
Cc1ccc(C(=O)C2(C)N(O)C(C)C(c3cccs3)=[N+]2[O-])cc1 (stereo not drawn)	inconclusive: -29.7%	–
CCCCC(CC)CNCC(O)c1ccccc1 (stereo not drawn)	–	inconclusive: 0.651 µM [falling, single point]
CCOC(=O)C1C2NC(=O)N(Cc3ccccc3)C1(C)Oc1c(OC)cccc12 (stereo not drawn)	inconclusive: -27.1%	–
Cc1cccc(N2C(=O)CC(=O)NC2=O)c1	inconclusive: -29.2%	–
Cc1ccc(C2=NN(CCC(=O)N3CCC4(CC3)OCCO4)C(=O)CC2)cc1	inconclusive: 3.38%	–
Cc1nc2ccccc2c(=O)n1-c1ccc(-c2ccccc2)cc1	inconclusive: 15.6%	–
COC(=O)C1=C(c2ccc(OC)c(OC)c2)C[C@@H]2CC[C@H]1N2C(=O)NCCCOC(C)C	inconclusive: 9.86%	–
Cc1cc(OCC(=O)N[C@@H](Cc2ccccc2)C(=O)O)c2c3c(c(=O)oc2c1)CCC3	inconclusive: 11.9%	–
[N-]=[N+]=CC(=O)OC[C@H](N)C(=O)O	inconclusive: 5.83%	–
CN(C)CCN=Cc1c(O)n(C2CCCCCC2)c(=O)[nH]c1=O	inactive	–
Fc1ccc(C(OCCN2CCCC2)c2ccc(Br)cc2)cc1 (stereo not drawn)	inconclusive: -9.29%	–
CC1CN(CC(=O)c2ccccc2Cl)CC(C)O1 (stereo not drawn)	inconclusive: -20.9%	–
CCN(CC)CCNCC(=O)Nc1ccc(Cl)cc1C(=O)c1ccccc1	–	inconclusive: 1.03 µM [falling, partial curve]
CCC(=Nc1ccc2c(c1)CCC2)c1c(O)n(-c2ccc(OC)cc2)c(=O)[nH]c1=O	–	inconclusive: 0.13 µM [cytotoxic, full curve, poor fit]
CC(=O)N1CN2CN(C1)CN(C(C)=O)C2	inconclusive: -0.0687%	–
Cc1oc(-c2ccccc2)nc1CN1C(=O)CN=C(c2ccccc2)c2ccccc21	–	inconclusive: 5.8 µM [rising, partial curve]
O=C1CN=C(c2ccc(Br)cc2)c2c(sc3c2CCCC3)N1CCN1CCCCC1	inconclusive: 94.7%	–
O=C(CSC1c2ccccc2-c2ccccc21)N/N=C/c1ccccc1	inconclusive: -6.32%	–
CCOc1ccc(N2C(=O)NC(=O)/C(=C\c3ccc(N4CCCCC4)o3)C2=O)cc1	inconclusive: -12.5%	–
CCn1ccnc1CN1CCCC(C(=O)c2cc(Cl)ccc2OC)C1 (stereo not drawn)	inconclusive: 1.5%	–
NC(=O)c1cn(C2OC(CO)C(O)C2O)c2ncnc(N)c12 (stereo not drawn)	inconclusive: -27.4%	–

Structure (SMILES)	lipid storage change, negative = inhibition	Potency
Fc1ccccc1CCNCc1cccc(Cl)c1Cl	inconclusive: -30.1%	–
COc1cc(CC2(CCc3ccncc3)C(=O)N(C)C(=O)N(C)C2=O)cc(OC)c1OC	inconclusive: 10.3%	–
Cc1c(NP(=O)(C(C)(C)C)C(C)(C)C)c(=O)n(-c2ccccc2)n1C	inconclusive: 40.3%	–
COc1ccc2c3c1OC1C(O)C=CC4C(C2)[N+](C)(C)CCC341 (stereo not drawn)	inconclusive: -14.3%	–
CC(C)C(NS(=O)(=O)c1ccc2c(c1)oc(=O)n2C)C(=O)N1CCN(c2ccccc2F)CC1 (stereo not drawn)	–	inconclusive: 20.6 µM [activator, single point]
COc1ccc(NC(=O)c2cn(CCC#N)nc2-c2ccccc2)cc1	inconclusive: 3.79%	–
CN1CC(C#N)C2(O)c3ccccc3CCC2C1 (stereo not drawn)	–	inconclusive: 29.1 µM [activator, single point]
CNC(C)Cc1ccccc1Sc1ccc(O)cc1 (stereo not drawn)	inconclusive: -4.8%	–
O=C(NCc1cccnc1)NC1CCCCC1	inconclusive: -3.14%	–
COc1ccc(C(=O)OC2CC3CCC(C2)[N+]3(C)[O-])cc1OC (stereo not drawn)	–	inconclusive: 11.6 µM [activator, partial curve, poor fit]
COc1ccccc1CNCCc1ccc(F)cc1	inactive	–
O=c1[nH]c(=O)n(Cc2ccccc2)c(O)c1/C=N/Nc1c(F)c(F)c(F)c(F)c1F	inconclusive: 3.72%	–
COc1ccccc1-n1c(O)c(C=NCCCn2ccnc2)c(=O)[nH]c1=O	inconclusive: 49.3%	–
COc1ccc2c(c1)CC1(CN2C)C(=O)NC(=O)N(c2ccc(F)cc2)C1=O (stereo not drawn)	–	inconclusive: 0.0058 µM [falling, full curve, poor fit]
CSc1ccccc1C(=O)C1CCCN(Cc2cccc(C)n2)C1 (stereo not drawn)	inactive	–
COc1ccc(C(=O)OC2C[C@H]3CC[C@H](C2)N3C)cc1OC (stereo partly drawn)	inactive	–
CN(C)c1ccc(/C=C2/C(=O)NC(=O)N(Cc3ccco3)C2=O)cc1	–	inconclusive: 1.64 µM [falling, partial curve, poor fit]
Cn1c(O)c(/C=C2\N=c3ccccc3=C2CCNC(=S)NC2CC2)c(=O)n(C)c1=O	–	inconclusive: 20.6 µM [falling, single point]
Cc1nccc2c1[nH]c1ccccc12	inconclusive: 10.2%	–
CC(C)(C)n1cc(C(=O)c2ccc3ccccc3c2O)cn1	inconclusive: 16.6%	–
Clc1ccccc1CN1CCN(c2ccccc2)CC1	–	inconclusive: 0.291 µM [falling, partial curve, poor fit]
CC(=O)N(C1=NCCCS1)c1ccc(Cl)cc1	inactive	–
O=C1CCN(C(=O)CCCn2c(=O)oc3ccccc32)CC1	–	inconclusive: 0.164 µM [falling, full curve, poor fit]
CC(C)N1CCC2(CC1)NC(CO)(CO)CO2	inactive	–
Nc1c(Cl)cc([N+](=O)[O-])cc1Cl	–	inconclusive: 8.2 µM [rising, partial curve]

15 neighbouring compounds out of the list so far, for reference:
Structure (SMILES)	lipid storage change, negative = inhibition	Potency
O=C(NCc1cccnc1)NC1CCCCC1	inconclusive: -3.14%	–
COc1ccc(C(=O)OC2CC3CCC(C2)[N+]3(C)[O-])cc1OC (stereo not drawn)	–	inconclusive: 11.6 µM [activator, partial curve, poor fit]
COc1ccccc1CNCCc1ccc(F)cc1	inactive	–
O=c1[nH]c(=O)n(Cc2ccccc2)c(O)c1/C=N/Nc1c(F)c(F)c(F)c(F)c1F	inconclusive: 3.72%	–
COc1ccccc1-n1c(O)c(C=NCCCn2ccnc2)c(=O)[nH]c1=O	inconclusive: 49.3%	–
COc1ccc2c(c1)CC1(CN2C)C(=O)NC(=O)N(c2ccc(F)cc2)C1=O (stereo not drawn)	–	inconclusive: 0.0058 µM [falling, full curve, poor fit]
CSc1ccccc1C(=O)C1CCCN(Cc2cccc(C)n2)C1 (stereo not drawn)	inactive	–
COc1ccc(C(=O)OC2C[C@H]3CC[C@H](C2)N3C)cc1OC (stereo partly drawn)	inactive	–
CN(C)c1ccc(/C=C2/C(=O)NC(=O)N(Cc3ccco3)C2=O)cc1	–	inconclusive: 1.64 µM [falling, partial curve, poor fit]
Cn1c(O)c(/C=C2\N=c3ccccc3=C2CCNC(=S)NC2CC2)c(=O)n(C)c1=O	–	inconclusive: 20.6 µM [falling, single point]
Cc1nccc2c1[nH]c1ccccc12	inconclusive: 10.2%	–
CC(C)(C)n1cc(C(=O)c2ccc3ccccc3c2O)cn1	inconclusive: 16.6%	–
Clc1ccccc1CN1CCN(c2ccccc2)CC1	–	inconclusive: 0.291 µM [falling, partial curve, poor fit]
CC(=O)N(C1=NCCCS1)c1ccc(Cl)cc1	inactive	–
O=C1CCN(C(=O)CCCn2c(=O)oc3ccccc32)CC1	–	inconclusive: 0.164 µM [falling, full curve, poor fit]
